Results from the supplement of paper PMC10849652.
The other results are listed elsewhere or left out.

Chains of the proteins cited; added tags and fusions are not shown. Lines headed by an entry give the natural chain unless they say otherwise; changes in a name come on top.
UniProt P35325: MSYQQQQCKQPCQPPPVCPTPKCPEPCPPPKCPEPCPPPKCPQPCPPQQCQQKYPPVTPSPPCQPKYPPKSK
UniProt P42224: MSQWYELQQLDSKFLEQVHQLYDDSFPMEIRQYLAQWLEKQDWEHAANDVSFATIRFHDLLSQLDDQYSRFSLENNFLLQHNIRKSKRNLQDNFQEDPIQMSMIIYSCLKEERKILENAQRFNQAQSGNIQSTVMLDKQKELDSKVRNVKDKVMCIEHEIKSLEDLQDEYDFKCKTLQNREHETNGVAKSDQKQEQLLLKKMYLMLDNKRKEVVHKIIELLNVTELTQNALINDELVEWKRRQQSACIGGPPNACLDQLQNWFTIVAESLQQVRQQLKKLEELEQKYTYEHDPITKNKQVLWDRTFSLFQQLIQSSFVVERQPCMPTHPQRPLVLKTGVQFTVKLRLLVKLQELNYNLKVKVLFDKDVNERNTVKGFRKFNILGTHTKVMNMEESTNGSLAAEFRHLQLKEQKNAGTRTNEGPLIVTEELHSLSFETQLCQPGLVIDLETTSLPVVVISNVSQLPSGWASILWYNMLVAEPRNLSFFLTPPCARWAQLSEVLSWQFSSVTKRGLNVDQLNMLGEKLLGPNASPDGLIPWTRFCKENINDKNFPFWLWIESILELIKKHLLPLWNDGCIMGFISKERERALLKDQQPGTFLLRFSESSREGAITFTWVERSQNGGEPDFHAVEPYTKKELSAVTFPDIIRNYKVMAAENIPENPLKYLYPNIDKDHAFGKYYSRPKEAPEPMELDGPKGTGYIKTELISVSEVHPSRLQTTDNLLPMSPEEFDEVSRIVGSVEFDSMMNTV
UniProt Q8N9Q2: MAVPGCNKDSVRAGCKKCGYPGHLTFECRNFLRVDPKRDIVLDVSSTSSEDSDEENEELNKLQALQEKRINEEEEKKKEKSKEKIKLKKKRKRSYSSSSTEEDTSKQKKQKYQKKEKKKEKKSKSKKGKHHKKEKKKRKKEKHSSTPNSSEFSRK
UniProt Q92502: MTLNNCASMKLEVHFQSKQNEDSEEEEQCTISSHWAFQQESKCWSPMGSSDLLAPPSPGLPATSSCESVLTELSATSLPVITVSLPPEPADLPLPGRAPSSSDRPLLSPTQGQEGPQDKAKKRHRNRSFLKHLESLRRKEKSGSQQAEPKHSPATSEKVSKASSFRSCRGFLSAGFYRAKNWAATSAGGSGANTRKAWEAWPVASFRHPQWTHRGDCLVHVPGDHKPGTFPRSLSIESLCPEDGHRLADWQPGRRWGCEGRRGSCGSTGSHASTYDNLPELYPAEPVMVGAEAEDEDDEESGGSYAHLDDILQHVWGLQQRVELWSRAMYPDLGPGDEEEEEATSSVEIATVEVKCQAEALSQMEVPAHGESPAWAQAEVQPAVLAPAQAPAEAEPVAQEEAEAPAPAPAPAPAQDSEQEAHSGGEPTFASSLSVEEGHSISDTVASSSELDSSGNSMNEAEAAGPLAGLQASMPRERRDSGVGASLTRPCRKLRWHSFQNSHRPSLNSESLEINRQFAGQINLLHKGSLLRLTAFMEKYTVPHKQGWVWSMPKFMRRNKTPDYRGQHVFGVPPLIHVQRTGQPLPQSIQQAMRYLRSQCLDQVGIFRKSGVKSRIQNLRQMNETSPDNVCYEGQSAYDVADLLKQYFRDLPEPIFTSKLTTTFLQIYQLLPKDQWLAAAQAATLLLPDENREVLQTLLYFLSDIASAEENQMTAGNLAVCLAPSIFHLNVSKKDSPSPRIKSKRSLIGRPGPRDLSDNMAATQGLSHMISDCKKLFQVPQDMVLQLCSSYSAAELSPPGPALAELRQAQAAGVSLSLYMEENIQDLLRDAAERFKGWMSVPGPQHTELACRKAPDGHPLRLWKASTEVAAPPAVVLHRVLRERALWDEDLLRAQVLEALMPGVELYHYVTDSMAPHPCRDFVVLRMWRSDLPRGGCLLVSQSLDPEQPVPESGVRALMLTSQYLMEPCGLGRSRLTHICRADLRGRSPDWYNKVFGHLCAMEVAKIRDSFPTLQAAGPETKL
UniProt Q68D10: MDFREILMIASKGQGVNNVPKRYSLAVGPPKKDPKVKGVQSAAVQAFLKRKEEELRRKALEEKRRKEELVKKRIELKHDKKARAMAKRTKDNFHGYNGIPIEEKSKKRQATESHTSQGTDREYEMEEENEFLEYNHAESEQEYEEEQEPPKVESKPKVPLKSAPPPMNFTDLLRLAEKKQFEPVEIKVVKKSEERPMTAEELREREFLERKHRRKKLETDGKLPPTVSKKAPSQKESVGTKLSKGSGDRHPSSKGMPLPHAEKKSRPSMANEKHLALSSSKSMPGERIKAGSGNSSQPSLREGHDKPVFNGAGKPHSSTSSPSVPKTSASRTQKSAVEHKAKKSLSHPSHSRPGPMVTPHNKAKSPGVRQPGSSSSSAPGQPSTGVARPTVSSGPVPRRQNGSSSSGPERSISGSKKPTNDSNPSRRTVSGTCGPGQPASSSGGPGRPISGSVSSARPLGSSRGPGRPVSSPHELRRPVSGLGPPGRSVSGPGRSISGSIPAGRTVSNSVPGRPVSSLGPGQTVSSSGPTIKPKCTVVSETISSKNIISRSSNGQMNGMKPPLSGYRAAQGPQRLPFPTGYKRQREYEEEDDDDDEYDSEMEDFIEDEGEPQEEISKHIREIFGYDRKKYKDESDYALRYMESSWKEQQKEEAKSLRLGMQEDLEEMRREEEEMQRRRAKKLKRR
UniProt Q8N0Z3: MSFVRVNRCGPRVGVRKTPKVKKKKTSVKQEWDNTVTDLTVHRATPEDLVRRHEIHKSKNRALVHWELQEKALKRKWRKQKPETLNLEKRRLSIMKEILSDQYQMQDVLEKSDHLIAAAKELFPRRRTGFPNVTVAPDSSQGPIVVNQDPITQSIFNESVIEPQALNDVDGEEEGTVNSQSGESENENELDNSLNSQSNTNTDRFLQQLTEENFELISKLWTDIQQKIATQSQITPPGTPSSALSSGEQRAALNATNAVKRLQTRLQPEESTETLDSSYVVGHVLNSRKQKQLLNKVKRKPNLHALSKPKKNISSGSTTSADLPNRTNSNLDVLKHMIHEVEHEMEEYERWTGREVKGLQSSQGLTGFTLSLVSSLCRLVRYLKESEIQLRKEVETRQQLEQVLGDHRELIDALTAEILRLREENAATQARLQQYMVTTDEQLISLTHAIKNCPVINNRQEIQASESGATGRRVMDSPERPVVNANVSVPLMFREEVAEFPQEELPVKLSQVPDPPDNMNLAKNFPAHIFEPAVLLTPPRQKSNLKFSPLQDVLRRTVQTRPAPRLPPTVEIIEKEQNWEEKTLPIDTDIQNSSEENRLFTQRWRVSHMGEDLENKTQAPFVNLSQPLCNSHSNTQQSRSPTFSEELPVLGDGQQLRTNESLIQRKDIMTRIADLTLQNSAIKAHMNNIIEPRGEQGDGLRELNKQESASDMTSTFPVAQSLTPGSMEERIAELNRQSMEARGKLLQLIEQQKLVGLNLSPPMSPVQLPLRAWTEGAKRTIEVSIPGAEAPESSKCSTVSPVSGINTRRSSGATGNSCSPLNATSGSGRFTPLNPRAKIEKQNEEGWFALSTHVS
UniProt O75177, whole entry, looked up: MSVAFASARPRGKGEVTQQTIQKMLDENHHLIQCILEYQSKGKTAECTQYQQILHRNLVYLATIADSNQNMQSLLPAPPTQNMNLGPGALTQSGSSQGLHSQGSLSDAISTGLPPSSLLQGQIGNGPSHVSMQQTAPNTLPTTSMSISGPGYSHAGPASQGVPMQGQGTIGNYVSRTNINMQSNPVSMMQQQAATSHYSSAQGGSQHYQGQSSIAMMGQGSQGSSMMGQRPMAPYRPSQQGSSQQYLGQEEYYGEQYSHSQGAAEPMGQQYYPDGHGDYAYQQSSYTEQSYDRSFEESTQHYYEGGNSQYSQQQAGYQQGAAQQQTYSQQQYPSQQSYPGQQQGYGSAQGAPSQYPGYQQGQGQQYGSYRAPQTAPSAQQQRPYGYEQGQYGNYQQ
UniProt Q9NY15: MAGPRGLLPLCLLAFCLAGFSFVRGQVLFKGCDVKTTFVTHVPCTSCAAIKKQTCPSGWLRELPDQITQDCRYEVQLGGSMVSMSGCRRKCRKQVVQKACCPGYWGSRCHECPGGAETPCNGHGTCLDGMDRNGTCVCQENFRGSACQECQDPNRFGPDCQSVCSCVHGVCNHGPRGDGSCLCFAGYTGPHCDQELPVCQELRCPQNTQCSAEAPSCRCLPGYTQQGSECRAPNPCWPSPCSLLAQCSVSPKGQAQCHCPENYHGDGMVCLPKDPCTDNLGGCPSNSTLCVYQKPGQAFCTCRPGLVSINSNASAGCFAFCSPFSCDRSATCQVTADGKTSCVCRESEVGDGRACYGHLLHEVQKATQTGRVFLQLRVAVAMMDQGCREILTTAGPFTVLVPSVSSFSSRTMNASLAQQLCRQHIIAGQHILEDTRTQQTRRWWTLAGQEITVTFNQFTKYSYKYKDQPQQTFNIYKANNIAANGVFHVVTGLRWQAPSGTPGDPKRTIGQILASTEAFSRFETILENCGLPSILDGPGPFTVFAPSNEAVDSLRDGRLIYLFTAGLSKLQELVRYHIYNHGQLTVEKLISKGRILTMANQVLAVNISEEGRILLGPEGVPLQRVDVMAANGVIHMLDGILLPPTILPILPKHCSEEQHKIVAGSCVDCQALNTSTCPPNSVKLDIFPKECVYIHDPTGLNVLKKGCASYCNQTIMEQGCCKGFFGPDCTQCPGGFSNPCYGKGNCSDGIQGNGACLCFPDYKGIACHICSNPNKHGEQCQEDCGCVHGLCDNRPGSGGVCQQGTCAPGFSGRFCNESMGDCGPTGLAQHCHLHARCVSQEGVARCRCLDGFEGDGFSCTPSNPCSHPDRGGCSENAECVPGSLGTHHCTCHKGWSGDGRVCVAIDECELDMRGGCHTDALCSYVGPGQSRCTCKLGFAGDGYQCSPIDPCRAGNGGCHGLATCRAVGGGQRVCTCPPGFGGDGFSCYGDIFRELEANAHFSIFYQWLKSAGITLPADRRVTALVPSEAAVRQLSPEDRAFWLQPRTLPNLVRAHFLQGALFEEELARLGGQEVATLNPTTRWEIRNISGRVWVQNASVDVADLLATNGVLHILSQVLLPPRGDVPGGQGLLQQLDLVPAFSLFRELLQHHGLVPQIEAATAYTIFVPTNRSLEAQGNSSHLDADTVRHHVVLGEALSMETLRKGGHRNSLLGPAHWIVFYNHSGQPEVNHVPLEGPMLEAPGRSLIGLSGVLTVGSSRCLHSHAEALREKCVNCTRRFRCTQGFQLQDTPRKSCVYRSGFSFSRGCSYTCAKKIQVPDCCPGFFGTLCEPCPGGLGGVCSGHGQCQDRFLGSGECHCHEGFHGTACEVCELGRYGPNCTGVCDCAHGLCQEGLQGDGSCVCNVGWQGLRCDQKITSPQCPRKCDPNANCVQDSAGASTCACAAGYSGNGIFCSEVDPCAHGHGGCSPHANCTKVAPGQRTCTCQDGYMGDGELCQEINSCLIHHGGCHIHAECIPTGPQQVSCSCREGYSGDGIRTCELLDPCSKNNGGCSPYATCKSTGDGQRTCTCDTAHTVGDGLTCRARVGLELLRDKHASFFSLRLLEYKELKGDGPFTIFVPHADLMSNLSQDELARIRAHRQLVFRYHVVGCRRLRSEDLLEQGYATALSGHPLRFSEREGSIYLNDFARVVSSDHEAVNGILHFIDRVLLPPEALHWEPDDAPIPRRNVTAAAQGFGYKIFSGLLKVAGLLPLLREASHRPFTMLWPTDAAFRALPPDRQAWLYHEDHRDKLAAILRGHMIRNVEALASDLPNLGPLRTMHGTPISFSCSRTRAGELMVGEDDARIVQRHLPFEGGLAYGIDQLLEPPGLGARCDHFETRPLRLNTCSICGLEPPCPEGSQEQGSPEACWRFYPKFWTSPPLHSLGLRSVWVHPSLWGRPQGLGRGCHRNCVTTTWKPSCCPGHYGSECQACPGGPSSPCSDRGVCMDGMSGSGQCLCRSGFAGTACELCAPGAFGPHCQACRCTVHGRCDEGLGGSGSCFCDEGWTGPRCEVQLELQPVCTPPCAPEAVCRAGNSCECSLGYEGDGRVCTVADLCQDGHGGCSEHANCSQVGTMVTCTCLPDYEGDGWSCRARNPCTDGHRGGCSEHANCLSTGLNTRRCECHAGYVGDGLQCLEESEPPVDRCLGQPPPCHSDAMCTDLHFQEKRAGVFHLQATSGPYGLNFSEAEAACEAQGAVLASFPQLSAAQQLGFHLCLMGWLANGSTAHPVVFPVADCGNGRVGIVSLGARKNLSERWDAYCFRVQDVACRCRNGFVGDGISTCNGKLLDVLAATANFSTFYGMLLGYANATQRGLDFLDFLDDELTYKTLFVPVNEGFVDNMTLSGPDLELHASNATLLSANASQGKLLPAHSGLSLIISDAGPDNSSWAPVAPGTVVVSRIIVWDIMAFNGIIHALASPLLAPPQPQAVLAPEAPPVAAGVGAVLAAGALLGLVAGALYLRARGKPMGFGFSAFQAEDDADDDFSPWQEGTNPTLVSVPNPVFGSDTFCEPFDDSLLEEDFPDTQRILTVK

Key:
Assay in all cases: log2 fold change, soluble protein after heating vs DMSO (PISA); higher = thermal stabilisation; K562 lysate, 10 uM; active = over 0.2 and 3.5 SD of the protein, either way, in both replicates (recomputed)
[1] = compound: CCCS(=O)(=O)Nc1ccc(F)c(C(=O)c2c[nH]c3ncc(Cl)cc23)c1F
In short: (§1)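 The values are log-two fold changes in thermal stability compared with solvent controls and come from duplicates. They were obtained by TMTpro 16plex LC-MS/MS, with channel sums equalised, on the supernatant after 21,000xg for 90 min. That supernatant came from crude K562 extract at 1 mg/mL protein treated with 10 μM compound for 30 min, heated for 3 min across 48°C-58°C, pooled and brought to 0.5% NP-40 at 4°C.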

barasertib = compound: CCN(CCCOc1ccc2c(Nc3cc(CC(=O)Nc4cccc(F)c4)[nH]n3)ncnc2c1)CCOP(=O)(O)O [barasertib]
In short: as §1

[2] = compound: CC[C@@H]1C(=O)N(C)c2cnc(Nc3ccc(C(=O)NC4CCN(C)CC4)cc3OC)nc2N1C1CCCC1
In short: as §1

volasertib = compound: CC[C@@H]1C(=O)N(C)c2cnc(Nc3ccc(C(=O)N[C@H]4CC[C@H](N5CCN(CC6CC6)CC5)CC4)cc3OC)nc2N1C(C)C [volasertib]
In short: as §1

[3] = compound: CCn1c(C(=O)N(C2CC2)C2CC2)cc2c3c(ncn3C)c(Nc3cc(C)n(C)n3)nc21
In short: as §1

[4] = compound: CCn1cc(-c2ccnc3[nH]c(-c4cccc(CN(C)C)c4)cc23)c(-c2ccc(NC(=O)N(C)C)cc2)n1
In short: as §1

[5] = compound: CN1CCC(CNc2ccc3ncc(-c4cccc(OC(F)(F)F)c4)n3n2)CC1
In short: as §1

sotrastaurin = compound: CN1CCN(c2nc(C3=C(c4c[nH]c5ccccc45)C(=O)NC3=O)c3ccccc3n2)CC1 [sotrastaurin]
In short: as §1

alvocidib = compound: CN1CC[C@H](c2c(O)cc(O)c3c(=O)cc(-c4ccccc4Cl)oc23)[C@H](O)C1 [alvocidib]
In short: as §1

Tubastatin A = compound: CN1CCc2c(c3ccccc3n2Cc2ccc(C(=O)NO)cc2)C1 [Tubastatin A]
In short: as §1

[6] = compound: CNC(=O)C1=CC=CC=C1NC2=NC(=NC=C2Cl)NC3=C(C=C(C=C3)N4CCOCC4)OC
In short: as §1

encorafenib = compound: COC(=O)N[C@@H](C)CNc1nccc(-c2cn(C(C)C)nc2-c2cc(Cl)cc(NS(C)(=O)=O)c2F)n1 [encorafenib]
In short: as §1

[7] = compound: COC(=O)[C@H](CCSC)NC(=O)C1=C(C=C(C=C1)NC[C@H](CS)N)C2=CC=CC=C2
In short: as §1

[8] = compound: COc1cc2nc(-c3cc(F)ccc3O)nc(N[C@@H]3CNC[C@H]3C(C)(C)O)c2cc1OC
In short: as §1

saracatinib = compound: CN1CCN(CCOc2cc(OC3CCOCC3)c3c(Nc4c(Cl)ccc5c4OCO5)ncnc3c2)CC1 [saracatinib]
In short: as §1

[9] = compound: CNc1nc(-c2ccc3c(N)n[nH]c3c2)cc(N2C[C@@H](C(=O)NC3CCCCC3)CC[C@H]2C)n1
In short: as §1

alisertib = compound: COc1cc(Nc2ncc3c(n2)-c2ccc(Cl)cc2C(c2c(F)cccc2OC)=NC3)ccc1C(=O)O [alisertib]
In short: as §1

gefitinib = compound: COc1cc2ncnc(Nc3ccc(F)c(Cl)c3)c2cc1OCCCN1CCOCC1 [gefitinib]
In short: as §1

vemurafenib = compound: CCCS(=O)(=O)Nc1ccc(F)c(C(=O)c2c[nH]c3ncc(-c4ccc(Cl)cc4)cc23)c1F [vemurafenib]
In short: as §1

defactinib = compound: CNC(=O)c1ccc(Nc2ncc(C(F)(F)F)c(NCc3nccnc3N(C)S(C)(=O)=O)n2)cc1 [defactinib]
In short: as §1

Measured: log2 fold change

SPRR2B (UniProt P35325)
inactive: [1] 0.004 | barasertib 0.095 | [2] 0.184 | volasertib -0.025 | [3] -0.011 | [4] 0.07 | [5] -0.048 | sotrastaurin 0.01 | alvocidib 0.085 | Tubastatin A 0.1 | [6] -0.05 | encorafenib 0.076 | [7] -0.15 | [8] -0.103

SREBF1 isoform 4 (UniProt P36956)
inactive: [1] -0.223 | volasertib -0.114 | [3] 0.051 | saracatinib 0.113 | sotrastaurin 0.03 | Tubastatin A 0.027 | [6] -0.097 | [9] 0.035 | [8] 0.195

STAT1 isoform 2 (UniProt P42224)
inactive: sotrastaurin 0.11 | alisertib -0.029 | gefitinib -0.117

SRC isoform 2 (UniProt P12931)
inactive: [1] 0.166 | barasertib 0.133 | [2] 0.045 | volasertib -0.039 | [3] -0.024 | [4] 0.184 | [5] -0.121 | alvocidib -0.035 | Tubastatin A 0.133 | [6] 0.118 | [9] -0.031 | encorafenib -0.171 | [7] 0.399 | [8] 0

SREK1IP1 (UniProt Q8N9Q2)
inactive: [1] -0.019 | [2] 0.088 | volasertib -0.039 | [3] 0.058 | [4] 0.267 | [5] -0.102 | sotrastaurin -0.049 | alvocidib 0.079 | Tubastatin A -0.063 | [6] 0.047 | encorafenib 0.127 | [7] -0.121 | alisertib -0.012 | [8] 0.039 | gefitinib -0.037

SRRD (UniProt Q9UH36)
inactive: [3] -0.216 | [4] -0.057 | [5] -0.042 | saracatinib -0.244 | sotrastaurin -0.004 | alvocidib -0.039 | Tubastatin A 0.123 | [9] 0.091

STARD8 isoform 2 (UniProt Q92502)
inactive: barasertib 0.075 | [2] -0.063 | [3] 0.02 | saracatinib 0.177 | sotrastaurin 0.11 | Tubastatin A -0.146 | [9] -0.126 | encorafenib 0.065 | [7] -0.048

STARD4 (UniProt Q96DR4)
inactive: [2] 0.029 | [4] -0.05 | [5] -0.045 | alvocidib 0.03 | encorafenib -0.089 | [7] 0.027

SPRED1 (UniProt Q7Z699)
inactive: [1] -0.065 | barasertib 0.293 | [2] 0.053 | volasertib -0.001 | [3] -0.132 | [4] -0.003 | [5] -0.009 | saracatinib -0.055 | alvocidib -0.107 | Tubastatin A 0.082 | [6] 0.054 | [9] -0.03 | encorafenib -0.097 | [7] 0.179 | [8] 0.019

SPIN4 (UniProt Q56A73)
inactive: vemurafenib 0.146 | [4] -0.183 | [5] 0.032 | alvocidib 0.174 | defactinib -0.097

SPTY2D1 (UniProt Q68D10)
inactive: barasertib 0.14 | [3] 0.123 | [4] -0.02 | [5] 0.02 | saracatinib -0.028 | sotrastaurin -0.091 | alvocidib -0.038 | Tubastatin A 0.193 | [6] -0.01 | [9] 0.068 | alisertib 0.025 | gefitinib 0.014

STAP1 (UniProt Q9ULZ2)
inactive: saracatinib 0.082 | [6] 0.102 | [9] -0.069 | alisertib -0.134 | gefitinib 0.27

STAU1 isoform 3 (UniProt O95793)
inactive: barasertib 0.014 | [4] -0.166 | [5] -0.016 | sotrastaurin 0.092 | alvocidib -0.06 | [6] -0.044 | alisertib -0.068 | gefitinib 0.03

SQOR (UniProt Q9Y6N5)
inactive: [1] 0.024 | [2] -0.033 | volasertib -0.041 | [3] -0.018 | saracatinib -0.03 | sotrastaurin -0.046 | Tubastatin A 0.065 | [6] -0.103 | [9] 0.03 | encorafenib 0.023 | [7] 0.08 | [8] -0.11

ST13P4 (UniProt Q8IZP2)
inactive: vemurafenib 0.07 | [3] -0.059 | Tubastatin A -0.053 | [6] -0.136 | defactinib 0.12

SRGAP2, A0A075B7B5
inactive: sotrastaurin 0.144

STAG1 (UniProt Q8WVM7)
inactive: [1] -0.025 | barasertib -0.064 | [2] -0.088 | volasertib -0.081 | [3] 0.016 | [4] -0.244 | [5] 0.067 | saracatinib 0.024 | sotrastaurin 0.066 | alvocidib -0.118 | Tubastatin A 0.037 | [6] 0.017 | [9] 0.03 | encorafenib 0.039 | [7] 0.025 | alisertib -0.026 | [8] -0.035 | gefitinib 0.085

SPRTN (UniProt Q9H040)
inactive: vemurafenib 0.046 | [2] 0.068 | [3] 0.243 | saracatinib -0.117 | Tubastatin A 0.052 | defactinib 0.236 | [9] -0.034 | encorafenib 0.011 | [7] -0.231

SPICE1 (UniProt Q8N0Z3)
inactive: vemurafenib -0.099 | [2] -0.119 | [6] -0.013 | defactinib -0.002 | encorafenib 0.064 | [7] 0.153 | alisertib -0.376 | gefitinib 0.102

STAG2 (UniProt Q8N3U4)
inactive: [1] 0.107 | [2] 0.126 | volasertib 0.087 | [3] -0.036 | [4] -0.032 | [5] -0.005 | sotrastaurin -0.192 | alvocidib -0.007 | Tubastatin A 0.008 | [6] 0.106 | encorafenib -0.141 | [7] -0.01 | [8] -0.006

SPTBN1 isoform 3 (UniProt Q01082)
inactive: [1] -0.073 | [2] 0.133 | volasertib -0.046 | [3] -0.035 | saracatinib -0.017 | sotrastaurin -0.196 | Tubastatin A 0.021 | [6] 0.046 | [9] -0.145 | encorafenib 0.107 | [7] 0.048 | alisertib 0.203 | [8] 0.093 | gefitinib -0.015

SS18L1 (UniProt O75177)
inactive: barasertib -0.07 | [3] -0.005 | [4] -0.018 | [5] -0.067 | sotrastaurin -0.028 | alvocidib -0.038 | Tubastatin A 0.055 | [6] 0.11 | alisertib -0.154 | gefitinib -0.062

SSR2 (UniProt P43308)
inactive: [3] -0.04 | Tubastatin A -0.028

Taken from above (two entries):
SS18L1 (UniProt O75177)
inactive: barasertib -0.07 | [3] -0.005 | [4] -0.018 | [5] -0.067 | sotrastaurin -0.028 | alvocidib -0.038 | Tubastatin A 0.055 | [6] 0.11 | alisertib -0.154 | gefitinib -0.062

SSR2 (UniProt P43308)
inactive: [3] -0.04 | Tubastatin A -0.028

Later entries

SPRY2 (UniProt O43597)
inactive: [6] 0.082

STAB1 (UniProt Q9NY15)
inactive: [1] 0.052 | volasertib -0.062 | [3] -0.321 | sotrastaurin 0.029 | Tubastatin A 0.1 | [6] -0.113 | [8] -0.077

SRCIN1 (UniProt Q9C0H9)
inactive: [1] 0.052 | [2] 0.026 | volasertib -0.043 | [3] -0.086 | [4] -0.014 | [5] -0.028 | alvocidib -0.104 | Tubastatin A 0.078 | [6] 0 | encorafenib 0.003 | [7] 0.083 | alisertib -0.146 | [8] 0.049 | gefitinib -0.062

ST3GAL1 (UniProt Q11201)
inactive: saracatinib -0.186 | sotrastaurin 0 | [9] 0.175
